# Values from PubChem BioAssay AID504791 (Drosophila RNAi Screening Center, 2011)
# Assay: 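Factors in Argonaute-based small RNA production and activity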 (primary screen)
# System: Drosophila S2-derived reporter cells
# Knock-down reagent: long dsRNA against Drosophila genes, about 150-250 ng dsRNA per well (siRNA assay); about 80-120 ng (miRNA assay)
# Duration: about 5 days (siRNA assay); about 4 days (miRNA assay)
# Challenge: copper sulfate induction of reporters: 25 µM (siRNA assay); 200 mM stated (miRNA assay), 1-2 days before reading
# Measurement: 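Per-well ratio of Renilla over firefly light, expressed relative to that plate's average ratio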
# Rule for the call: 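First-pass picks had plate-scaled ratios over 1.5 for the siRNA assay, over 1.6 for the miRNA assay, or under 0.6; two distinct dsRNAs had to score alike on retest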
# In all, the deposit lists about 23,000 reagents; this is a random part of those with a known target gene and a result. In the full data, 199 (0.86%) were called active. 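Plate-scaled ratios behind the calls are not deposited; printed light signals are raw; many rows marked increased or decreased are still called inactive.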 Names joined by + are all predicted targets of the reagent. Further read-outs or replicates are left out here. Not given: the direction of the score.
Target gene,DRSC id,stable siRNA reporter change,miRNA reporter change,"stable assay Renilla, run 1 (luminescence)",activity call
CG14380,DRSC14840,,,7242,inactive
CG31245,DRSC15498,,,6707,inactive
Sfp93F,DRSC13505,,,4895,inactive
Cyp309a2,DRSC00526,,,10127,inactive
Or9a,DRSC18692,,,4671,inactive
Hsepi,DRSC04986,,,6931,inactive
csw,DRSC18756,,reporter ratio lowered past the hit cutoff,5267,inactive
csw,DRSC23326,,,3988,inactive
CG11400,DRSC06070,,,6336,inactive
ValRS,DRSC06864,,,8374,inactive
Etfb,DRSC16324,,,7921,inactive
CG7264,DRSC10793,,,6051,inactive
CG32512,DRSC20519,,,4503,inactive
CG32512,DRSC20551,,,5907,inactive
CG32512,DRSC21401,,,8983,inactive
disco-r,DRSC20173,,,3664,inactive
disco-r,DRSC20174,,,4871,inactive
gfzf,DRSC12506,,,6990,inactive
gfzf,DRSC21874,,,7695,inactive
CG33491 (retired record) + CG33496 (retired record) + CG33487 (retired record) + 1 more,DRSC22969,,,4032,inactive
CG17493,DRSC03798,,,6059,inactive
obst-B,DRSC01987,,,46484,inactive
Oxp,DRSC06712,,,5931,inactive
arm,DRSC18738,,,8895,inactive
CR31822,DRSC01510,,,5000,inactive
CG3091,DRSC18274,,,7314,inactive
CG13616,DRSC14619,,,7674,inactive
CG3088,DRSC10352,,,7988,inactive
Vha16-4 + CG15614,DRSC07321,,,6252,inactive
glu,DRSC03539,,,28626,inactive
Prx2,DRSC20256,,,4864,inactive
Ubc6,DRSC12370,reporter ratio raised past the hit cutoff,,17752,inactive
CG10822,DRSC06005,,,6794,inactive
REPTOR,DRSC14626,,,7773,inactive
REPTOR,DRSC24359,,reporter ratio lowered past the hit cutoff,,inactive
CG30062,DRSC21737,,,8523,inactive
toc,DRSC00169,,,4607,inactive
toc,DRSC00171,,,5866,inactive
toc,DRSC00842,,,27831,inactive
CG31525,DRSC12004,,,5695,inactive
CG13004,DRSC19523,,,4547,inactive
Mt2,DRSC03374,,,7126,inactive
BckdhA,DRSC16395,,,6022,inactive
cdm,DRSC16213,,,6734,inactive
CG8854,DRSC07288,,,8211,inactive
DCTN5-p25,DRSC03525,,,8084,inactive
Npc2d,DRSC14551,,,6610,inactive
abs,DRSC12372,,,8475,inactive
CG11231 (retired record),DRSC17207,,,6595,inactive
CG18549,DRSC15347,,,7414,inactive
pdgy,DRSC19064,,,4919,inactive
pdgy,DRSC19341,,,7862,inactive
Shrm,DRSC06437,,,5203,inactive
Shrm,DRSC06438,reporter ratio lowered past the hit cutoff,,5616,inactive
Shrm,DRSC07221,,,7138,inactive
Shrm,DRSC23067,,,6142,inactive
Rbfox1,DRSC09034,,,4011,inactive
Rbfox1,DRSC10157,,,2871,inactive
Rbfox1,DRSC10320,,,5532,inactive
Rbfox1,DRSC21378,,,9333,inactive
Rbfox1,DRSC22992,,,6538,inactive
